Measurements as given in PMC8639830.
Results are given in words; binding and its absence hold for the method and conditions named. Binding seen in cells or lysates may run through a third protein. Some entries that bind do so weakly or less than the wild type.

The chains behind the UniProt entries cited, without tags or fusion partners.
UniProt P37231: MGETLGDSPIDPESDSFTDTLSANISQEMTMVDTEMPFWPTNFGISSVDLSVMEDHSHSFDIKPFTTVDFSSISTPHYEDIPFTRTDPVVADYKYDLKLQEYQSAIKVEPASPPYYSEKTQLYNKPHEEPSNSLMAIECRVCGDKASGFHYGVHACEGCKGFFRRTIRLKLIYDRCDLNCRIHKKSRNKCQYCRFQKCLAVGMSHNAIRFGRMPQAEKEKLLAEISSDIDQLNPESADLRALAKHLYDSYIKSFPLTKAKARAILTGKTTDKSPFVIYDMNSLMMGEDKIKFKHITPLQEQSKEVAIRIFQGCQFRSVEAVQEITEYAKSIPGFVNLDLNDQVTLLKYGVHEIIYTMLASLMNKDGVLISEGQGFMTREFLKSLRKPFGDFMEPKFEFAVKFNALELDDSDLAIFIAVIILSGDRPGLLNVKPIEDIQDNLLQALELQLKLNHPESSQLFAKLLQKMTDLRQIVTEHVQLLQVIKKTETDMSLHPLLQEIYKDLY
UniProt O75925: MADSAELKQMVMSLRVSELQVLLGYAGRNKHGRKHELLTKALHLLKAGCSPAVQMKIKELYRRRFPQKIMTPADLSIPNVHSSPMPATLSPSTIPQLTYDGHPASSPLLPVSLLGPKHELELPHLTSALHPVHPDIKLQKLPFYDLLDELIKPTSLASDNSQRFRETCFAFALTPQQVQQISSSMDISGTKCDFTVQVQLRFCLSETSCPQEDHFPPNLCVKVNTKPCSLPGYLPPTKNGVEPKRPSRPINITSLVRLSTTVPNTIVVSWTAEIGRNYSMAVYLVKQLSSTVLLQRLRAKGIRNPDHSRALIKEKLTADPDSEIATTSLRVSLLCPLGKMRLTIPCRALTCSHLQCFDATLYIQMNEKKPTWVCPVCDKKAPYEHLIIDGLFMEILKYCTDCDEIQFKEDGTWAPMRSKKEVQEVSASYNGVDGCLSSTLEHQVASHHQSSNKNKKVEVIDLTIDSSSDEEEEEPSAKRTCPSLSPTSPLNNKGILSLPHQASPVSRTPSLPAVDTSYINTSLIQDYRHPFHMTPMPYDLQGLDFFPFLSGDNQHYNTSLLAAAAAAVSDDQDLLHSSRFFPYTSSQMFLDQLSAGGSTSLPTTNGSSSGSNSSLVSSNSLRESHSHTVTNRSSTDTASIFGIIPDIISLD

Target: Peroxisome proliferator-activated receptor γ (PPAR-γ) (UniProt P37231)
Test: co-IP; SC4 cells transfected with PIAS1 and PPAR-γ plasmids; lysed in IP lysis buffer with protease inhibitor; lysate with antibodies against Flag, HA or IgG and protein A Sepharose overnight at 4 °C; beads rinsed three times; western blot for PIAS1 and PPAR-γ

Substance: Protein inhibitor of activated STAT1 (PIAS1) (from UniProt O75925 1-651)
- binding: binds
